Source: patent US6242563 (dated 2001)

Assay: general procedure: Boc solid-phase peptide synthesis; MBHA resin; HBTU/DIEA
Conditions: whole synthesis, scale 0.14 mmol

With [β-Ala^28 ]hPACAP(1-38)NH2 the “final HPLC purity” value (analytical HPLC) was over 99% and the isolated mass was 286 mg.
